# Test results reported in the supplement of paper PMC10849652.
# Sequences of proteins named here, by UniProt entry; tags and fusion partners are left off. A change or cut given only in a name is not applied to a line headed by its entry.
# UniProt P17066, whole entry, looked up: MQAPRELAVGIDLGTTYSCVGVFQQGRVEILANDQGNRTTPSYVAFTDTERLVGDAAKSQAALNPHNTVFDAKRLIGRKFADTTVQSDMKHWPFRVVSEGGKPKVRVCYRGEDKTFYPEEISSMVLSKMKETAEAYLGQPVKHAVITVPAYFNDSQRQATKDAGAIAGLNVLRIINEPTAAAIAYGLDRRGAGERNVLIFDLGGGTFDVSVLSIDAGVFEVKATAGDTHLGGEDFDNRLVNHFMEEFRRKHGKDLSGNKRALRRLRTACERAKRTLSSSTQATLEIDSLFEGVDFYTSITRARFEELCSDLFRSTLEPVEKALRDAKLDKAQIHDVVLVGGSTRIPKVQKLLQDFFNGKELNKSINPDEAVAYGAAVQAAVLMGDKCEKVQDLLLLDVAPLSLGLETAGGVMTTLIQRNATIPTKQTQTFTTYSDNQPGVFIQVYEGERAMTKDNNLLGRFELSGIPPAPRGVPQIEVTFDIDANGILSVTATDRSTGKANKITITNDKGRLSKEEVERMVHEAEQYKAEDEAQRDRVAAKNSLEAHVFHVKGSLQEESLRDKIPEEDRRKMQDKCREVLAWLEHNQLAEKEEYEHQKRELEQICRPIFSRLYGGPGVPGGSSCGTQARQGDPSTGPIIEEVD
# UniProt P05114: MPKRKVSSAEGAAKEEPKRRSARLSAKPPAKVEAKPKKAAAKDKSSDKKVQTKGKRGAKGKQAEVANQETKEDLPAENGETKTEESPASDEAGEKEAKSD
# UniProt P30519: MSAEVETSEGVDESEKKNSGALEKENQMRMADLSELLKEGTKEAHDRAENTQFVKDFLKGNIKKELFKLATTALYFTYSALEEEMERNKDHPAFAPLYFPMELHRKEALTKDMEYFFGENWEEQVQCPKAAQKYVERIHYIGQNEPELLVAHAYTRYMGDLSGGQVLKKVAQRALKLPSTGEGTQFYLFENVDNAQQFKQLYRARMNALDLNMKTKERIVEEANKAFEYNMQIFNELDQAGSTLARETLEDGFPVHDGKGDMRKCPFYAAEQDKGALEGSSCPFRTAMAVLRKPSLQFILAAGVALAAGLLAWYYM
# UniProt Q92506: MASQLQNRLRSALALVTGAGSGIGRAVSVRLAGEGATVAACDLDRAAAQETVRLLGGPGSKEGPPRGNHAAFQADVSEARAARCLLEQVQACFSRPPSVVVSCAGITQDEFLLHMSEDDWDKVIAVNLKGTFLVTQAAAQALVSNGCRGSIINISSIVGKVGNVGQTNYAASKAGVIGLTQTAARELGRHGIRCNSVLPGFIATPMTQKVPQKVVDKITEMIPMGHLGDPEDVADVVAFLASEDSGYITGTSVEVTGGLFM
# UniProt P31943: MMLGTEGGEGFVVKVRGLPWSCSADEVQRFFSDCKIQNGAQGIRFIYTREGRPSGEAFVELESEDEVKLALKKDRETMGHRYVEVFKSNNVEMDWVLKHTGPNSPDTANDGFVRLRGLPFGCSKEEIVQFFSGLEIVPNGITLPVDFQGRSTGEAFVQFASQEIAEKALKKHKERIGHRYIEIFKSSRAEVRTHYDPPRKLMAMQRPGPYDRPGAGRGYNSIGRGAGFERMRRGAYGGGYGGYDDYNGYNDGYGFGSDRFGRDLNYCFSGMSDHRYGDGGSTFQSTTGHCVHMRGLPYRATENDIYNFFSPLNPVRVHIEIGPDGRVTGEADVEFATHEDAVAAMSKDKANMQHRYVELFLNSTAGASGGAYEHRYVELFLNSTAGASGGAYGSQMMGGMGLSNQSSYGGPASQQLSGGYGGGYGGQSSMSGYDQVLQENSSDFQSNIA
# UniProt P48723: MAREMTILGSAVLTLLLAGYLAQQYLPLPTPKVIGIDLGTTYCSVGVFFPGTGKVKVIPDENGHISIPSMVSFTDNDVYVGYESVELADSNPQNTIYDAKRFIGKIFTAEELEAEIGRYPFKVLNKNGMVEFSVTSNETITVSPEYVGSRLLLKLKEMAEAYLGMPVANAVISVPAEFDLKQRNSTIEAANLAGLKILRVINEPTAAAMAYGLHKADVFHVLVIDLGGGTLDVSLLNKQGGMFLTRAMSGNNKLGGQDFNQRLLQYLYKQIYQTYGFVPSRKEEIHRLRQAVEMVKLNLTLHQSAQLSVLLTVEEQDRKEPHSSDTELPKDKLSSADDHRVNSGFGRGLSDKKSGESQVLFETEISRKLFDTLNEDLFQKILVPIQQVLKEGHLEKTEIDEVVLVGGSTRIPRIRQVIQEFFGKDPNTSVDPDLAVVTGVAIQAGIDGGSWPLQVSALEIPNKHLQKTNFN
# UniProt P04035: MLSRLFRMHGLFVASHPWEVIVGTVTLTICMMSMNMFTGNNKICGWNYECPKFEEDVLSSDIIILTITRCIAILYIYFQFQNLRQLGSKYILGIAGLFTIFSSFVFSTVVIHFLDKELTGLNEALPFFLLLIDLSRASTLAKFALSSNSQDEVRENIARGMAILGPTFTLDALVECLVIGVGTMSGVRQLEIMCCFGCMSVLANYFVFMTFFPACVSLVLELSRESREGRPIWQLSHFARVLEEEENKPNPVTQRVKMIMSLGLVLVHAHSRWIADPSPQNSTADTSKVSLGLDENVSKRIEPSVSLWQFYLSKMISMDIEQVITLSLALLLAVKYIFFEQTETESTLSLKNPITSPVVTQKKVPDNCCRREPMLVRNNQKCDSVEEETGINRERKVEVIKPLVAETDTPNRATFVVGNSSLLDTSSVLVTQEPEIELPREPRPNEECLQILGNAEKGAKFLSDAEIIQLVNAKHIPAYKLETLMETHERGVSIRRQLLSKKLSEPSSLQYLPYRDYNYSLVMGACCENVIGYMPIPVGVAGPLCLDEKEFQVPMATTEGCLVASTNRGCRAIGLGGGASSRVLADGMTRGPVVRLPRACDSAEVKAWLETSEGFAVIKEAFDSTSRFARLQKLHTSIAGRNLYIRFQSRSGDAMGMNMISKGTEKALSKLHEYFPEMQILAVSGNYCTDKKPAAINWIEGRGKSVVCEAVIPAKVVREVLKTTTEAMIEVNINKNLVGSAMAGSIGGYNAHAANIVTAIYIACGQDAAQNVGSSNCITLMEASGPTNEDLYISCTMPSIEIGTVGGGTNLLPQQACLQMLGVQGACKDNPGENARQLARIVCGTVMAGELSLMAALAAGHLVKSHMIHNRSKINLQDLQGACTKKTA
# UniProt P04792, whole entry, looked up: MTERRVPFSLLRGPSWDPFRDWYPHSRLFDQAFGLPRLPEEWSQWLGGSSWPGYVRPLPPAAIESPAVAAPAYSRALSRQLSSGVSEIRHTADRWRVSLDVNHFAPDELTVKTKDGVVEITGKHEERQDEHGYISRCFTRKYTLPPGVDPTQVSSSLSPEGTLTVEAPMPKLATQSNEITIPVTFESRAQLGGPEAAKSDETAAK
# UniProt P82970: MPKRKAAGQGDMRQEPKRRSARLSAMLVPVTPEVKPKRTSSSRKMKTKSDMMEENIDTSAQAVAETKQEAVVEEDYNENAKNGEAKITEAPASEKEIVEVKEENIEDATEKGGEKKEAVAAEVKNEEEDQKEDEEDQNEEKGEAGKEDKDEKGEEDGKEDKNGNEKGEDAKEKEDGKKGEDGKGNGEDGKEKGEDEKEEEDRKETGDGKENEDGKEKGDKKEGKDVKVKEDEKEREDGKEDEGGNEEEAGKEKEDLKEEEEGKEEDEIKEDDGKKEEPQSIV
# UniProt Q53FT3: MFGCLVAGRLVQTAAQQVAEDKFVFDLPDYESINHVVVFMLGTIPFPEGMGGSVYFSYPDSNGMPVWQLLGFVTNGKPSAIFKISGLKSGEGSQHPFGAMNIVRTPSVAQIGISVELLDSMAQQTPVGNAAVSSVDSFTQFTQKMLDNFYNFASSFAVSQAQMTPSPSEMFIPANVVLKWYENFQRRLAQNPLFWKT
# UniProt P34931, whole entry, looked up: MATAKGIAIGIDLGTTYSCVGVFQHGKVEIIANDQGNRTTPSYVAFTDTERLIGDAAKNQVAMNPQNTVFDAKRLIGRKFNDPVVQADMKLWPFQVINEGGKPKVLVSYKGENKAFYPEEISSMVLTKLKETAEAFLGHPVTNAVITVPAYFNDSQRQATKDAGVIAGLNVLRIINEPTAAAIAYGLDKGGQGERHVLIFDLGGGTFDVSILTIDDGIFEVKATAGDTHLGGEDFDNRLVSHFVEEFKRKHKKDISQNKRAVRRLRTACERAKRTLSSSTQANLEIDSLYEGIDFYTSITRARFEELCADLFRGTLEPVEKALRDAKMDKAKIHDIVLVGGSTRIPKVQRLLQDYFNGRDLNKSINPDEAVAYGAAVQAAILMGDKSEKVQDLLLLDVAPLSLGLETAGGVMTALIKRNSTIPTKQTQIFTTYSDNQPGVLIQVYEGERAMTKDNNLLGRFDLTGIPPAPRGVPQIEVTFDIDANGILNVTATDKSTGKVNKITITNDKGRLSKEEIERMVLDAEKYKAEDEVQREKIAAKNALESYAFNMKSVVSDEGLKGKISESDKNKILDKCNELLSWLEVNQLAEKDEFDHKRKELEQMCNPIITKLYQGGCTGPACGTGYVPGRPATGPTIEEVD
# UniProt P61604, whole entry, looked up: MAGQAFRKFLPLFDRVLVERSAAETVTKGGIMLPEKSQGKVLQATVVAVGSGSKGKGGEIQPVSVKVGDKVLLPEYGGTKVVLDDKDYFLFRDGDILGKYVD
# UniProt P56937: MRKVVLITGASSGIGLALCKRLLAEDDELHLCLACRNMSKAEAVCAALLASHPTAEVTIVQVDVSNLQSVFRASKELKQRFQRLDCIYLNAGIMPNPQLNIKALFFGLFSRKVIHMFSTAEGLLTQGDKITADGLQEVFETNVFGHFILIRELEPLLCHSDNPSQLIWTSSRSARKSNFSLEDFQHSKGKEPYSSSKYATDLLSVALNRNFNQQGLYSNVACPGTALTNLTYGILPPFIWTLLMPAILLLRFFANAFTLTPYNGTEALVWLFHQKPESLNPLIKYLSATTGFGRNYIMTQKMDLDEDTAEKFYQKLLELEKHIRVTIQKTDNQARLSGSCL
# UniProt Q9BUJ2: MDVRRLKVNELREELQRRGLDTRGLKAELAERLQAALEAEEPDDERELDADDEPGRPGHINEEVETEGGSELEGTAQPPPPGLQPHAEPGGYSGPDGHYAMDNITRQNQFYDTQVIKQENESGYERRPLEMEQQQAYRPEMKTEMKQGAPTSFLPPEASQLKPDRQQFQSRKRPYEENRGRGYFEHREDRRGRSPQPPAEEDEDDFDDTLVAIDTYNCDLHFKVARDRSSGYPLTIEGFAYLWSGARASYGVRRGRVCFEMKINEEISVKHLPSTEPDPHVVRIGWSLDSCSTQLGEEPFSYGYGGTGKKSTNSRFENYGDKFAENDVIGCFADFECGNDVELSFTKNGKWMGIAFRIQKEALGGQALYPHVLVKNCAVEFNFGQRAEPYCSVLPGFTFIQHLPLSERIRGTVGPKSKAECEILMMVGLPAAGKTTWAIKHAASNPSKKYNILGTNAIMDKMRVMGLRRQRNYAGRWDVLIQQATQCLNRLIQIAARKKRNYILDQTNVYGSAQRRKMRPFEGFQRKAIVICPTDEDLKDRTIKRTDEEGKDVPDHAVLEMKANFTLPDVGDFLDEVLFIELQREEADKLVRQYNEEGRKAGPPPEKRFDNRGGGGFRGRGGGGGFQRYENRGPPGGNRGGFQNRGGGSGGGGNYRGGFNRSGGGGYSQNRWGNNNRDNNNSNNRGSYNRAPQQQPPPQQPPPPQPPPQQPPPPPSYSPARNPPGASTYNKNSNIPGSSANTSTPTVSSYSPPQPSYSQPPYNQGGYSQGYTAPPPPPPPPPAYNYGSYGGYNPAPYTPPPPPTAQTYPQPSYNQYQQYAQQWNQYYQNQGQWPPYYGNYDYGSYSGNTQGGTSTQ
# UniProt Q15651: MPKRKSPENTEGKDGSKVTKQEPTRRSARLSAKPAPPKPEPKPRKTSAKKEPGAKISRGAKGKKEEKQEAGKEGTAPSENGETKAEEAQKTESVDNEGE
# UniProt O15347: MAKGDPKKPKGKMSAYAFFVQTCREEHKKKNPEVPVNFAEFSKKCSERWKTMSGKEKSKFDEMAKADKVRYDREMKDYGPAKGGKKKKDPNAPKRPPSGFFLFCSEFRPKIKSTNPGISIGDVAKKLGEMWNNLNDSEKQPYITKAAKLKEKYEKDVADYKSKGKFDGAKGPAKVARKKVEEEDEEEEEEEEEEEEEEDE
# UniProt Q14103: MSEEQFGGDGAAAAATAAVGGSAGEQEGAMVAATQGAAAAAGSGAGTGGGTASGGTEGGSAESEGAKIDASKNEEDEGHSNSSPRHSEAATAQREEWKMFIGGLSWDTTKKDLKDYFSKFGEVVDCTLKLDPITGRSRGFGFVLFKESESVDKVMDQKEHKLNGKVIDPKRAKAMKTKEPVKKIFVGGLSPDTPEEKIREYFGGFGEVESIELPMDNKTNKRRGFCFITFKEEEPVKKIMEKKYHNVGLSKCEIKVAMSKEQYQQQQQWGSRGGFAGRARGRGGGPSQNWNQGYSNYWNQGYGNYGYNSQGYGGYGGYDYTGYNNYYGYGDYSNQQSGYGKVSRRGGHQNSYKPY
# UniProt Q9NQE9: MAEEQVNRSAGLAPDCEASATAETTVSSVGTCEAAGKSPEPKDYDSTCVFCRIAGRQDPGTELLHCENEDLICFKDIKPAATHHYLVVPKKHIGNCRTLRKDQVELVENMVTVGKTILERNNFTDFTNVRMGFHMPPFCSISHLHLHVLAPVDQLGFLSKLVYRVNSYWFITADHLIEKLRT
# The list shows a part of the results.
# Assays:
# Assay in all cases: log2 fold change, soluble protein after heating vs DMSO (PISA); higher = thermal stabilisation; K562 cells, 10 uM, 30 min; active = over 0.2 and 3.5 SD of the protein, either way, in both replicates (recomputed)
# erlotinib = compound: C#Cc1cccc(Nc2ncnc3cc(OCCOC)c(OCCOC)cc23)c1 [erlotinib]
# How it was run: (§1)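 For each measurement, 10 μM compound was applied for 30 min to K562 cells at 2×10^6 cells/mL. Aliquots were heated for 3 min across 48°C-58°C, pooled, and extracted in PBS with 0.5% NP-40 at 4°C; the supernatant after 21,000xg for 90 min was soluble protein. This was quantified by TMTpro 16plex LC-MS/MS with channel sums equalised, and thermal stability was reported relative to control samples from duplicates, on a log2 fold-change scale.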
# [1] = compound: C/C(=N\NC(=O)C1=CC(=CC=C1)S(=O)(=O)N2CCOCC2)/C3=C(C=CC(=C3)Cl)O
# How it was run: as §1
# [2] = compound: C1=CC(=C(C=C1Cl)C2=NC3=NC=CN=C3C(=N2)NC4=CC=NC=C4)F
# How it was run: as §1
# [3] = compound: C1=CC(=CC=C1C2=NC3=C(N2)C=C(C=C3)C(=O)N)OC4=CC=C(C=C4)Cl
# How it was run: as §1
# [4] = compound: C1=CC2=C(C=CC(=C2)/C=C\3/C(=O)NC(=NCC4=CC=CS4)S3)N=C1
# How it was run: as §1
# [5] = compound: C1=CC2=NC=CN=C2C=C1/C=C/3\C(=O)NC(=O)S3
# How it was run: as §1
# [6] = compound: C1=CC=C(C=C1)C2=NC(=C(N2)C3=CC=NC=C3)C4=CC(=C(C=C4)Cl)O
# How it was run: as §1
# [7] = compound: C1=CC=C2C(=C1)C3=NNC4=CC=CC(=C43)C2=O
# How it was run: as §1
# [8] = compound: C1CCN(C1)C(=O)NC2=CC=CC(=C2)NC3=NC=C(C(=N3)NCCC4=CN=CN4)Br
# How it was run: as §1
# [9] = compound: C1CN(CCC1(CC2=CC=C(C=C2)Cl)N)C3=NC=NC4=C3C=CN4
# How it was run: as §1
Target,log2 fold change (erlotinib),log2 fold change [1],log2 fold change [2],log2 fold change [3],log2 fold change [4],log2 fold change [5],log2 fold change [6],log2 fold change [7],log2 fold change [8],log2 fold change [9]
HSPA6 (UniProt P17066),inactive: -0.022,inactive: -0.051,inactive: 0.031,inactive: 0.008,inactive: -0.005,inactive: 0.052,inactive: -0.008,inactive: -0.006,inactive: 0.019,inactive: -0.052
HMGN1 (UniProt P05114),inactive: -0.069,inactive: -0.114,inactive: -0.011,inactive: 0.066,inactive: -0.114,inactive: 0.045,inactive: -0.062,inactive: -0.059,inactive: 0.029,inactive: -0.028
HMOX2 (UniProt P30519),inactive: 0.065,inactive: 0.057,inactive: 0.039,inactive: -0.038,inactive: 0.024,inactive: -0.023,inactive: 0.03,inactive: 0.032,inactive: -0.04,inactive: 0.016
HSD17B8 (UniProt Q92506),inactive: 0,inactive: 0.023,inactive: 0.092,inactive: 0.011,inactive: -0.001,inactive: 0.009,inactive: -0.005,inactive: 0.058,inactive: 0.008,inactive: 0.018
HUWE1 (UniProt Q7Z6Z7),inactive: -0.025,inactive: 0.057,inactive: 0.003,inactive: 0.024,inactive: 0.007,inactive: 0.006,inactive: 0.01,inactive: 0.013,inactive: -0.002,inactive: -0.009
HNRNPH1 (UniProt P31943),inactive: 0.043,inactive: 0.102,inactive: -0.04,inactive: 0.004,inactive: -0.035,inactive: -0.012,inactive: -0.016,inactive: 0.007,inactive: -0.1,inactive: -0.023
HSPA13 (UniProt P48723),inactive: -0.007,inactive: 0.035,inactive: 0.012,inactive: 0.007,inactive: -0.033,inactive: 0.034,inactive: -0.052,inactive: 0.025,inactive: -0.01,inactive: 0.039
HSP90AB1 (UniProt P08238),inactive: -0.036,inactive: 0.066,inactive: 0.047,inactive: -0.004,inactive: -0.032,inactive: -0.01,inactive: 0.014,inactive: 0.078,inactive: 0.013,inactive: -0.006
HIF1AN (UniProt Q9NWT6),inactive: -0.022,inactive: -0.177,inactive: 0.092,inactive: 0.003,inactive: -0.117,inactive: -0.102,inactive: 0.12,inactive: 0.036,inactive: -0.043,inactive: 0.069
HMGCR isoform 3 (UniProt P04035),inactive: -0.089,inactive: 0.025,inactive: -0.001,inactive: 0.032,inactive: -0.038,inactive: 0.101,inactive: -0.033,inactive: -0.137,inactive: -0.081,inactive: 0
HSPBP1 isoform 3 (UniProt Q9NZL4),inactive: 0.01,inactive: 0.103,inactive: 0.019,inactive: -0.004,inactive: -0.01,inactive: 0.057,inactive: 0.06,inactive: -0.008,inactive: 0.027,inactive: -0.087
HSPB1 (UniProt P04792),inactive: 0.007,inactive: 0.018,inactive: -0.062,inactive: 0.003,inactive: 0.008,inactive: 0,inactive: 0.027,inactive: -0.019,inactive: -0.009,inactive: -0.116
IBA57 (UniProt Q5T440),inactive: 0.062,inactive: -0.008,inactive: 0.104,inactive: -0.014,inactive: 0.035,inactive: 0.028,inactive: -0.015,inactive: 0.066,inactive: 0.001,inactive: 0.038
HMGN5 (UniProt P82970),inactive: -0.038,inactive: 0.055,inactive: 0.048,inactive: -0.005,inactive: -0.039,inactive: 0.066,inactive: 0,inactive: 0.031,inactive: -0.05,inactive: 0.114
HIKESHI (UniProt Q53FT3),inactive: 0.004,inactive: 0.1,inactive: 0.017,inactive: 0.003,inactive: 0.073,inactive: 0.02,inactive: -0.002,inactive: -0.03,inactive: -0.056,inactive: 0.009
IARS (UniProt P41252),inactive: -0.013,inactive: -0.054,inactive: -0.445,inactive: 0,inactive: 0.055,inactive: 0.009,inactive: -0.047,inactive: 0.008,inactive: 0.057,inactive: -0.167
HSPA1L (UniProt P34931),inactive: -0.074,inactive: -0.226,inactive: -0.013,inactive: 0.053,inactive: 0.114,inactive: -0.052,inactive: -0.056,inactive: -0.127,inactive: 0.082,inactive: 0.222
HNRNPH2 (UniProt P55795),inactive: 0.019,inactive: 0.17,inactive: 0.037,inactive: -0.028,inactive: 0.112,inactive: -0.031,inactive: -0.047,inactive: -0.016,inactive: -0.068,inactive: 0.024
HNRNPL (UniProt P14866),inactive: 0.086,inactive: -0.044,inactive: -0.217,inactive: 0.171,inactive: -0.103,inactive: 0.115,inactive: -0.001,inactive: -0.034,inactive: 0.072,inactive: -0.177
HSPE1 (UniProt P61604),inactive: 0.02,inactive: 0.028,inactive: 0.088,inactive: -0.039,inactive: 0.049,inactive: 0.012,inactive: -0.034,inactive: 0,inactive: 0.017,inactive: 0.012
HSD17B7 (UniProt P56937),inactive: -0.018,inactive: 0.123,inactive: 0.078,inactive: -0.02,inactive: 0.076,inactive: 0.014,inactive: 0.088,inactive: 0.001,inactive: -0.035,inactive: 0.019
HMCES (UniProt Q96FZ2),inactive: 0.077,inactive: 0.07,inactive: 0.076,inactive: -0.171,inactive: 0.171,inactive: -0.024,inactive: -0.051,inactive: -0.034,inactive: 0.062,inactive: -0.032
HNRNPUL1 (UniProt Q9BUJ2),inactive: 0.022,inactive: -0.009,inactive: 0.018,inactive: -0.012,inactive: 0.001,inactive: -0.01,inactive: 0.004,inactive: 0.014,inactive: 0.029,inactive: -0.048
HIST2H2AA3 (UniProt Q6FI13),inactive: -0.115,inactive: -0.063,inactive: -0.422,inactive: 0.052,inactive: -0.205,inactive: 0.146,inactive: 0.014,inactive: 0.023,inactive: 0.065,inactive: -0.477
HMGN3 (UniProt Q15651),inactive: 0.048,inactive: -0.016,inactive: 0.09,inactive: 0.061,inactive: -0.092,inactive: 0.02,inactive: -0.046,inactive: 0.007,inactive: -0.084,inactive: -0.014
HMGB3 (UniProt O15347),inactive: -0.037,inactive: -0.002,inactive: 0.047,inactive: 0.011,active: -0.267,inactive: -0.042,inactive: 0.095,inactive: -0.006,inactive: -0.025,inactive: 0.023
HSPA8 (UniProt E9PK54),inactive: -0.008,inactive: 0,inactive: -0.346,inactive: 0.032,inactive: 0,inactive: 0.034,inactive: -0.211,inactive: -0.095,inactive: -0.056,inactive: -0.158
HNRNPD isoform 4 (UniProt Q14103),inactive: -0.048,inactive: -0.192,inactive: -0.295,inactive: -0.013,inactive: -0.02,inactive: 0.037,inactive: 0.281,inactive: -0.031,inactive: -0.02,inactive: -0.043
HINT3 (UniProt Q9NQE9),inactive: 0.125,inactive: 0.009,inactive: 0.028,inactive: -0.023,inactive: -0.04,inactive: 0.038,inactive: -0.032,inactive: 0.011,inactive: -0.029,inactive: 0.012
HPCAL1 (UniProt P37235),inactive: 0.011,inactive: 0.048,inactive: 0.029,inactive: 0,inactive: 0,inactive: 0.057,inactive: -0.063,inactive: 0.002,inactive: 0.013,inactive: -0.034

# Copied from the list:
# HMGB3 (UniProt O15347) – log2 fold change (erlotinib): inactive: -0.037
# HSPA13 (UniProt P48723) – log2 fold change [6]: inactive: -0.052

# Shown with bars between the fields: entries from further up
Target | log2 fold change (erlotinib) | log2 fold change [1] | log2 fold change [2] | log2 fold change [3] | log2 fold change [4] | log2 fold change [5] | log2 fold change [6] | log2 fold change [7] | log2 fold change [8] | log2 fold change [9]
HNRNPH1 (UniProt P31943) | inactive: 0.043 | inactive: 0.102 | inactive: -0.04 | inactive: 0.004 | inactive: -0.035 | inactive: -0.012 | inactive: -0.016 | inactive: 0.007 | inactive: -0.1 | inactive: -0.023
HSPA13 (UniProt P48723) | inactive: -0.007 | inactive: 0.035 | inactive: 0.012 | inactive: 0.007 | inactive: -0.033 | inactive: 0.034 | inactive: -0.052 | inactive: 0.025 | inactive: -0.01 | inactive: 0.039
